Measured values as given in PubChem BioAssay AID1439 (NMMLSC, 2008).
The campaign covered roughly 220,000 compounds. About 770 (0.35%) were called active. Inconclusive means that the source gave no clear call. Such entries were picked first, then a sample of the others. Cut-off read from the data, not from the text of the source: active = binding response below about 49% or above about 150%; inconclusive = no clear call, values can overlap the other calls; inactive = in between.

Amino acid sequences for entries named in this document (tags omitted).
UniProt P09471, whole entry, looked up: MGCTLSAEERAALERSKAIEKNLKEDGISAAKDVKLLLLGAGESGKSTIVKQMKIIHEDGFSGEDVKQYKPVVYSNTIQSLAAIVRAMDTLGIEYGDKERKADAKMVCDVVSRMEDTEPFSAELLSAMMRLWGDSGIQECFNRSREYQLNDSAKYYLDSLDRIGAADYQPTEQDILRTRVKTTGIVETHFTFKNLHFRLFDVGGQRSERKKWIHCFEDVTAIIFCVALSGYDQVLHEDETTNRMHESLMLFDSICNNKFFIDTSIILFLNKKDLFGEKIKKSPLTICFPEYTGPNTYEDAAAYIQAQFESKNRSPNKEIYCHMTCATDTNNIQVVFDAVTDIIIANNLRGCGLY

Target: Guanine nucleotide-binding protein G(o) subunit alpha (Homo sapiens) (UniProt P09471)
Assay: RGS7-Galphao binding modulators, primary screen, biochemical, multiplexed bead flow cytometry (AID 1439);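 note: fluorescent Galphao held in activated GDP-AlF4 state binding bead-coupled RGS7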
Conditions: at 10 µM, actives lie on both sides

Compound | binding response (% of control)
COc1ccc(CC(=O)OCC(=O)Nc2ccc(Br)cc2)cc1 | inconclusive: 101%
COc1ccc(/C=N/n2c(C)cc(C)c(C(N)=O)c2=O)cc1 | inactive: 91.8%
CC(C)Nc1nc(-c2ccncc2)nc(-c2ccc(Cl)cc2)c1C#N | inconclusive: 111%
Cc1cccc(C(=O)Nc2ccc(C(=O)/C=C/c3cccnc3)cc2)c1 | active: 186% [activator]
CCOc1ncccc1C(=O)NCc1ccccc1Cl | inactive: 104%
Cc1ccc(SC2=C(Sc3ccc(C)cc3)C(=O)c3ccccc3C2=O)cc1 | inconclusive: 122%
CN(C)c1cc(NC(=O)CNC(C)(C)CC(C)(C)C)c2ccccc2n1 | inconclusive: 99.7%
Cc1cc(C)c(C#N)c(SC(C(=O)NC(C)(C)C)c2ccccc2)n1 (centres undefined) | inconclusive: 96.1%
COc1ccc(-n2nc(C(=O)NCC(=O)Nc3ccccn3)c3ccccc3c2=O)cc1Cl | inactive: 110%
Cc1cc(C)n2nc(C(=O)Nc3cccc(S(=O)(=O)N(C)c4ccccc4)c3)nc2n1 | inconclusive: 135%
COc1cc(NC(=O)C(=O)N2CCN(C)CC2)c(OC)cc1Cl | inconclusive: 123%
CC(=O)N1NC(=Nc2ccccc2)SC1(C)C | inactive: 72.2%
Cc1ccc(-c2c[n+](=O)c3c(n2[O-])CCC3)cc1 | inconclusive: 249%
Nc1ccccc1Sc1ccc(C(=O)c2ccccc2C(=O)O)cc1[N+](=O)[O-] | inconclusive: 97.4%
NC(=O)c1nn(-c2ccc(Cl)cc2Cl)c(=O)cc1O | inactive: 100%
CC(=O)NC(=S)Nc1ccc(NC(=O)COc2ccc(Cl)cc2Cl)cc1 | active: 184% [activator]
O=C(NC1CCCCCCC1)C1CCN(S(=O)(=O)N2CCCC2)CC1 | inactive: 51.8%
O=C(Cc1c(F)cccc1Cl)Nc1nc2ccccc2s1 | inconclusive: 85.7%
CCc1nc(SCC(=O)c2ccc3c(c2)OCCO3)c2ccccc2n1 | inactive: 111%
NC(Cc1ccc(OC(F)F)cc1)C(=O)O (centres undefined) | inconclusive: 640%

Compound | binding response (% of control)
COc1ccc(/C=C/C(=O)Nc2cccc(S(=O)(=O)N3CCCC3)c2)cc1OC | inconclusive: 112%
COc1ccc(NC2c3ccccc3C(=O)N2c2cccnc2)cc1 (centres undefined) | inconclusive: 105%
CN(C)c1ccc(/C=N/n2ncc3ccccc32)cc1 | inactive: 102%
COc1ccc(Cc2noc(CN(C)CC3CCN(Cc4ccccc4)CC3)n2)cc1OC | inconclusive: 156%
O=C(CN1CCCc2ccccc21)N1CCc2ccccc21 | inconclusive: 102%
Cc1[nH]nc(NNC(=O)c2ccccc2)c1[N+](=O)[O-] | inconclusive: 117%
NC(=S)N/N=C1\CC(c2ccc3c(c2)OCCO3)Oc2ccc(F)cc21 (centres undefined) | inconclusive: 121%
COc1ccc(C(=O)N=c2sc3c(C)ccc(OC)c3n2C)cc1OC | inconclusive: 100%
CN(C)S(=O)(=O)c1cccc(NC(=S)N(CCC#N)Cc2cccnc2)c1 | inactive: 93.7%
Cc1ccnc2nc(C(=O)OCCOc3ccc(Cl)cc3)nn12 | inactive: 102%
COc1cccc(NC(=O)CSC(N)=O)c1 | inactive: 98.7%
COc1ccc(CN2CCOC2=O)cc1OC | inconclusive: 86.8%
Nc1nc(-c2ccc3c(c2)CCCC3)cs1 | inactive: 99.2%
CSc1nc2ccc(NC(=O)C3=NNC(=O)CC3)cc2s1 | inconclusive: 101%
CCOC(=O)N/N=C/C=C/c1ccccc1[N+](=O)[O-] | inconclusive: 103%
CCOC(=O)CS(=O)(=O)c1ccccc1 | inactive: 101%
O=C(COC(=O)/C=C/c1ccc(F)cc1)Nc1ccccc1-c1ccccc1 | inactive: 97.9%
COC(=O)c1nc(-n2nc(C)cc2C)ccc1Cl | inactive: 100%
CCOC(=O)N1CCN(S(=O)(=O)c2cccc3nonc23)CC1 | inactive: 102%
Cc1ccc(N=Cc2c(C)[nH]n(-c3ccccc3)c2=O)nc1 | inconclusive: 92.7%

Reformatted in CSV form: 18 of the compounds above.
Compound,binding response (% of control)
COc1ccc(/C=C/C(=O)Nc2cccc(S(=O)(=O)N3CCCC3)c2)cc1OC,inconclusive: 112%
COc1ccc(NC2c3ccccc3C(=O)N2c2cccnc2)cc1 (centres undefined),inconclusive: 105%
CN(C)c1ccc(/C=N/n2ncc3ccccc32)cc1,inactive: 102%
COc1ccc(Cc2noc(CN(C)CC3CCN(Cc4ccccc4)CC3)n2)cc1OC,inconclusive: 156%
O=C(CN1CCCc2ccccc21)N1CCc2ccccc21,inconclusive: 102%
Cc1[nH]nc(NNC(=O)c2ccccc2)c1[N+](=O)[O-],inconclusive: 117%
NC(=S)N/N=C1\CC(c2ccc3c(c2)OCCO3)Oc2ccc(F)cc21 (centres undefined),inconclusive: 121%
CN(C)S(=O)(=O)c1cccc(NC(=S)N(CCC#N)Cc2cccnc2)c1,inactive: 93.7%
Cc1ccnc2nc(C(=O)OCCOc3ccc(Cl)cc3)nn12,inactive: 102%
COc1cccc(NC(=O)CSC(N)=O)c1,inactive: 98.7%
COc1ccc(CN2CCOC2=O)cc1OC,inconclusive: 86.8%
Nc1nc(-c2ccc3c(c2)CCCC3)cs1,inactive: 99.2%
CCOC(=O)N/N=C/C=C/c1ccccc1[N+](=O)[O-],inconclusive: 103%
CCOC(=O)CS(=O)(=O)c1ccccc1,inactive: 101%
O=C(COC(=O)/C=C/c1ccc(F)cc1)Nc1ccccc1-c1ccccc1,inactive: 97.9%
COC(=O)c1nc(-n2nc(C)cc2C)ccc1Cl,inactive: 100%
CCOC(=O)N1CCN(S(=O)(=O)c2cccc3nonc23)CC1,inactive: 102%
Cc1ccc(N=Cc2c(C)[nH]n(-c3ccccc3)c2=O)nc1,inconclusive: 92.7%

Further structures follow:

Compound | binding response (% of control)
O=C(NNC(=O)C12CC3CC(CC(C3)C1)C2)[C@@H]1C[C@H]1c1ccccc1 | inactive: 102%
Cc1ccc(Nc2ccc(S(=O)(=O)N3CCOCC3)cc2[N+](=O)[O-])c(C)c1 | inactive: 98.2%
COC(=O)c1ccc(NC(=O)COc2ccc([N+](=O)[O-])cc2)cc1 | inconclusive: 77.8%
CC(/C=C/C=C/c1ccccc1)=N/NC(=O)c1ccc2c(c1)OCCO2 | inconclusive: 181%
NC(=O)c1cnn(-c2cc(Oc3ccccc3)ncn2)c1N | inactive: 100%
O=c1cc(-c2ccccc2)nc2c(-c3ccccc3)c(C(F)(F)F)[nH]n12 | inconclusive: 31%
O=C(c1cccc([N+](=O)[O-])c1)c1ccccn1 | inconclusive: 281%
Cc1ccc(C(O)(COC(=O)C(C)C)COC(=O)C(C)C)c(O)c1 | inactive: 91%
Nc1nonc1-n1nnc(C(=O)N/N=C/c2c(Cl)cccc2Cl)c1CSC1=NCCS1 | inconclusive: 78.4%
COc1cc(/C=C2\SC(=S)N(CC(=O)Nc3ccc(O)cc3)C2=O)cc(OC)c1OC | inconclusive: 101%
Cc1cc(=O)oc2cc(OS(C)(=O)=O)ccc12 | inconclusive: 103%
CC(C)OP(=O)(OC(C)C)C(NC(=O)c1ccccc1Br)C(N)=O (centres undefined) | inconclusive: 128%
CCC(C)n1c(SCC(=O)NC(=O)c2cccn2C)nc2ccccc2c1=O (centres undefined) | inconclusive: 101%
Cc1ccc(C(C)C)cc1NC(=O)Nc1ccc([N+](=O)[O-])cc1 | inconclusive: 105%
O=C(OCC(=O)N1CCc2ccccc21)c1cccc(S(=O)(=O)N2CCCc3ccccc32)c1 | inactive: 101%
Cc1onc(-c2ccc(Cl)cc2Cl)c1-c1csc(N/N=C/c2ccccc2Cl)n1 | inconclusive: 11.2%
COC(=O)c1ccc(COc2cc([N+](=O)[O-])cc3cccnc23)cc1 | inconclusive: 125%
O=C(COC(=O)c1cnccn1)c1ccc(Cl)c([N+](=O)[O-])c1 | inconclusive: 85%
Cn1c(=O)c2c(ncn2CC(=O)OCC(=O)Nc2cc(Cl)ccc2Cl)n(C)c1=O | inactive: 102%
